Experimental data from doi:10.1101/2020.01.30.927038.
No constants are given. Whether binding was seen depends on the method and setting. Binding seen in cells or lysates may run through a third protein. These calls come from enrichment with a bait or labelling near it, and not all partners need be listed.

Sequences of proteins named here, by UniProt entry; tags and fusion partners are left off. Residues count along the entry.
UniProt Q9Y4K0, residues 26-774: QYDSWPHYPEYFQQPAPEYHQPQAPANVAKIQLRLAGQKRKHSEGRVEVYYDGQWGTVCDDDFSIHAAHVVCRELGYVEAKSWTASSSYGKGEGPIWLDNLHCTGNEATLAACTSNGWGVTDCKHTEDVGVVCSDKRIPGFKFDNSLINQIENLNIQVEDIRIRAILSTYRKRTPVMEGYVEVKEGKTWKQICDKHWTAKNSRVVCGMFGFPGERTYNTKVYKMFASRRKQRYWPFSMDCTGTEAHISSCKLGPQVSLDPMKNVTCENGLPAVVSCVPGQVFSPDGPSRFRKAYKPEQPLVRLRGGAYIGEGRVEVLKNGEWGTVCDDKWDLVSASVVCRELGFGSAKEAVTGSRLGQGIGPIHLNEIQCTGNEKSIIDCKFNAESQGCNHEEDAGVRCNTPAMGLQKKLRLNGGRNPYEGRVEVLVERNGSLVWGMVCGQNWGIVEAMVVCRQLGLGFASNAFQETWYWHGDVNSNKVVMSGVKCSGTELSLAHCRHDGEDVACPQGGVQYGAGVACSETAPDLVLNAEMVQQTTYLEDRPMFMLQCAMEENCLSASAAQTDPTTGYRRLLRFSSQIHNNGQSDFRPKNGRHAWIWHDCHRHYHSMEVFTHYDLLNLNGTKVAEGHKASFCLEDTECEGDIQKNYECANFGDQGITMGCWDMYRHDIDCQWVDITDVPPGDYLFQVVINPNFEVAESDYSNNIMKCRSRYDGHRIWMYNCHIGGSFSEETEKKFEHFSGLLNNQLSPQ
UniProt O96019: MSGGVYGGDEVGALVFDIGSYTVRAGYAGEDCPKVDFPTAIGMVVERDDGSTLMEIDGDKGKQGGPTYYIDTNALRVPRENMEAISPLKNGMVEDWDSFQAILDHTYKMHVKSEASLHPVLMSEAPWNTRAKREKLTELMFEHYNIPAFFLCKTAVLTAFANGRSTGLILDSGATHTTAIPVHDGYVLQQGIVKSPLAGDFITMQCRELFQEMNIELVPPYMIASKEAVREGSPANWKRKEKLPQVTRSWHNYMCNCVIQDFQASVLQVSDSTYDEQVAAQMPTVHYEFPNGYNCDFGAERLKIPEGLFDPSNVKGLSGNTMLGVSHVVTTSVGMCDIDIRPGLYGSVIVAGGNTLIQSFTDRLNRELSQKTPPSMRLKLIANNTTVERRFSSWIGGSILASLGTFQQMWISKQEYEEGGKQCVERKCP
UniProt Q9Y265: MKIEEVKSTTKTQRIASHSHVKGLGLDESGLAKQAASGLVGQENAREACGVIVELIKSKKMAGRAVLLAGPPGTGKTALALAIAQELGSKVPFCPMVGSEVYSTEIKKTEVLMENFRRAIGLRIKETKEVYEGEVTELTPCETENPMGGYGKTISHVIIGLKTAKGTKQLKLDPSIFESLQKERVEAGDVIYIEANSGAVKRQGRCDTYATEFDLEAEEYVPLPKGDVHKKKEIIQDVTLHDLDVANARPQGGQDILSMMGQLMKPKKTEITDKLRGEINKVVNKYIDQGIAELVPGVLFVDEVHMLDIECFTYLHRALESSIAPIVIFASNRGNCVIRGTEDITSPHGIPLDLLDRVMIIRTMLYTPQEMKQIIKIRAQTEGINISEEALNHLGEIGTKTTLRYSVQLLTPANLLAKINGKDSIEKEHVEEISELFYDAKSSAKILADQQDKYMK
UniProt Q9NPF5: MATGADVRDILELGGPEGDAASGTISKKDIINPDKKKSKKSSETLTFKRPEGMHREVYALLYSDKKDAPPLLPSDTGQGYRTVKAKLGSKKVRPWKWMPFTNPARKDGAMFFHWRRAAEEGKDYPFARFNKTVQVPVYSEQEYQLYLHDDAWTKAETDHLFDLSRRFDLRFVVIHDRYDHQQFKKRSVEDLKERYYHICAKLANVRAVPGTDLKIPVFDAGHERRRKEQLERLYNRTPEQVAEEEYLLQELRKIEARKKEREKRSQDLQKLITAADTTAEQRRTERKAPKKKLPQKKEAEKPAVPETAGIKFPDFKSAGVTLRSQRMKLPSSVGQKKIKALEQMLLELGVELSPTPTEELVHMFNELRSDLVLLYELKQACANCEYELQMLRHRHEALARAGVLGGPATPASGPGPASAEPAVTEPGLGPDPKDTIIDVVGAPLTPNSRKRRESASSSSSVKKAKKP

Biological target: LOXL2 (bait of the previously published tandem-affinity purification) (UniProt Q9Y4K0)
Test: affinity purification with mass spectrometry

Substance	binding
BAF53 (from UniProt O96019 1-429)	binds
RUVBL1 (from UniProt Q9Y265 1-456)	binds
DMAP1 (from UniProt Q9NPF5 1-467)	binds
